{"source": "ChEMBL document CHEMBL1125177", "about": "“Pseudopeptide analogues of substance P and leucine enkephalinamide containing the psi (CH2O) modification: synthesis and biological activity” (J Med Chem, 1991)", "species": "Cavia porcellus", "test": "Inhibitory effect was measured on guinea pig ileum for maximal contraction", "format": "functional", "data": [{"smiles": "CN1CC[C@]23c4c5ccc(O)c4O[C@H]2[C@@H](O)C=C[C@H]3[C@H]1C5", "note": "[MORPHINE]", "values": [{"measurement": "IC50", "value": 140, "unit": "nM"}]}]}
